Literature values as cited in patent publication US10991450B2, “Materials and methods for determining metabolizer status in humans” (priority 2012, dated 2021).

Chains of the proteins cited; added tags and fusions are not shown.
UniProt P08684, whole entry: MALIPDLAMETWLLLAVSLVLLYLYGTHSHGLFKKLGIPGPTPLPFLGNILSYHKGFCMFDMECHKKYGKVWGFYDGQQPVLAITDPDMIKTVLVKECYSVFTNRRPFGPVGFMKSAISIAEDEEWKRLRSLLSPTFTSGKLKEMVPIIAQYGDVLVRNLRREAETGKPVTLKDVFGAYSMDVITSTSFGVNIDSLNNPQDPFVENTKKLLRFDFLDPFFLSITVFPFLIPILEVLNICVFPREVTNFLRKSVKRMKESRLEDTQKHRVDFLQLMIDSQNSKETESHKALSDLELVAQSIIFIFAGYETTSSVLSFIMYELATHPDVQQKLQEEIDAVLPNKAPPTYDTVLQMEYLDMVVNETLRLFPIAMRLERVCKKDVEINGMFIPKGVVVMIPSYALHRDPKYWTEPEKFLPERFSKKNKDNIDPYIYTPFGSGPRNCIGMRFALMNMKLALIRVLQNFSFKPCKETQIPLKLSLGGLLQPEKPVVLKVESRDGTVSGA
UniProt P20815, whole entry: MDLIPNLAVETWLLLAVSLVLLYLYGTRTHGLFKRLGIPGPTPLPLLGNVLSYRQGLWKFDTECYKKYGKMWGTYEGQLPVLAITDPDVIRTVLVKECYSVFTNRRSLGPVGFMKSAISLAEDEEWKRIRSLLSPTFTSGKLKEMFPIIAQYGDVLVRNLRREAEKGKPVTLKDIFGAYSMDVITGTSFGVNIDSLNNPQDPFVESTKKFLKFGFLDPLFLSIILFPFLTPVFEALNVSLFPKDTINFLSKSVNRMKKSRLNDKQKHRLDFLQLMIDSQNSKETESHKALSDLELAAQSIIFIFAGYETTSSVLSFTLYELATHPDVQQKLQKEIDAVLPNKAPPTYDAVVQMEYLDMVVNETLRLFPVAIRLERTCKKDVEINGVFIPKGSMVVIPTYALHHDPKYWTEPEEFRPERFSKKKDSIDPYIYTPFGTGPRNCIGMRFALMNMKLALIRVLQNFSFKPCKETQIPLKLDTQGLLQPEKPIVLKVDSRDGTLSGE

What was measured:
[1] = target: CYP3A4 (Homo sapiens, UniProt P08684); settings: reported in vitro study
[2] = target: CYP3A5 (Homo sapiens, UniProt P20815); settings: reported in vitro study

share of atorvastatin metabolism CYP3A4 is responsible for [1]: 85%
share of atorvastatin metabolism CYP3A5 is responsible for [2]: 15%
Compound: CC(C)c1c(C(=O)Nc2ccccc2)c(-c2ccccc2)c(-c2ccc(F)cc2)n1CC[C@@H](O)C[C@@H](O)CC(=O)O [atorvastatin]
